Measured values as given in PMC5712553, “A Novel TetR Family Transcriptional Regulator, CalR3, Negatively Controls Calcimycin Biosynthesis in Streptomyces chartreusis NRRL 3882”.
The exact form of at least one protein or probe is not confirmed. The comparison behind a weaker result is the experiment's own reference, which may not be listed here. Where a protein sequence is shown, tags need not be part of it.

Target: T1, CalR3 (Streptomyces chartreusis NRRL 3882) (UniProt F8QZR9)
T1 sequence (looked up, limits assumed): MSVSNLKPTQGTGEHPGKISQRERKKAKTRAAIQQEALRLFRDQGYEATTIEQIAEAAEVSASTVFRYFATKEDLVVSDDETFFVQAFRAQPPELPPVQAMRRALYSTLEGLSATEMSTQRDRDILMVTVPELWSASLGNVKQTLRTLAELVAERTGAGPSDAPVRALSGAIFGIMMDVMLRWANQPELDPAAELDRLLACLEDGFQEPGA
Assay: EMSA
Settings: EMSA: 20 mM Tris-Cl pH 8.0, 100 mM KCl, 10 mM DTT, 37 C, 30 min, 20 ul, recombinant protein, protein details: N-terminal His6 (pET28a), probe letters rebuilt from the primers and the genome

Measured: binding result

CCAGCCGGTAAAGAGCGAGCCTCATGACAGGCAACCTTCTTTTAGGAGTCGACTTTCAATTGATAGCCTACTAGCACTTTGAGGAGATGAGAACTCCTCCTCGCTGCCACC (double strand) [T-R3L]
binds more weakly: WT fermentation supernatant extract | calcimycin (1.9 mM), dissociates CalR3 | cezomycin (0.95 mM), dissociates CalR3
